Results as given in paper PMC5893545.
Tags and fusion partners may be left off the protein sequences shown.

Biological target: T1, NIGT1.1(DBD) (Arabidopsis thaliana) (UniProt Q9FPE8)
T1 sequence (looked up, limits assumed): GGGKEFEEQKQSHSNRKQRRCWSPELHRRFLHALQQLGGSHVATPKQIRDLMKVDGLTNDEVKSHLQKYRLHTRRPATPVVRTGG
Assay: EMSA
Settings: 20 mM HEPES-KOH pH 7.6, 3 mM MgCl2, 30 mM KCl, 20 mM NaCl, 2 mM DTT, 0.5 mM EDTA, 10% glycerol, 0.5 ug poly[d(I-C)], 0.1x Complete; 25-50 ng protein, 2.5-5 ng probe; recombinant protein; protein details: Trx, His (pET32); label: biotin; probe letters rebuilt from the primers and the genome

## ACACAGGAAACAGCTATGACCATGTGTTATAAAATATTTCAAGTTTCTTTGCAAGTTTGAGATTTGATTCAAGTTTATTTGATCGATGTCTGAATATTAATCACACGATGGCTTATATAGGGTTCCTAGCCAGTGTTGACAATGAAAAAAGCATTCTTTGGAGATTCTCAACGGTTAACTATCGATTTAAATATTAATTTTCGAGGAATCCATTTTCGCCGCAAGCATCTTCCTAGTCTCTCGCTTATCACCAAAGGTTGCCGATATCCTTCCAAATGACCGCTCTACCCTTCCCTCATCTTGC (double strand) [NRT2.1 p5]
  binding result: binds
